In paper PMC10362501 one finds binding data, which are given here for 1 substance.

No constants are given. Whether binding was seen depends on the method and setting. Binding seen in cells or lysates may run through a third protein. A result given as binding can be weak or reduced; the word gives no strength. Sequences can lack the tags named with a protein.

The target in this experiment is T1, UNC45B-FLAG (human) (UniProt Q8IWX7).
T1 sequence: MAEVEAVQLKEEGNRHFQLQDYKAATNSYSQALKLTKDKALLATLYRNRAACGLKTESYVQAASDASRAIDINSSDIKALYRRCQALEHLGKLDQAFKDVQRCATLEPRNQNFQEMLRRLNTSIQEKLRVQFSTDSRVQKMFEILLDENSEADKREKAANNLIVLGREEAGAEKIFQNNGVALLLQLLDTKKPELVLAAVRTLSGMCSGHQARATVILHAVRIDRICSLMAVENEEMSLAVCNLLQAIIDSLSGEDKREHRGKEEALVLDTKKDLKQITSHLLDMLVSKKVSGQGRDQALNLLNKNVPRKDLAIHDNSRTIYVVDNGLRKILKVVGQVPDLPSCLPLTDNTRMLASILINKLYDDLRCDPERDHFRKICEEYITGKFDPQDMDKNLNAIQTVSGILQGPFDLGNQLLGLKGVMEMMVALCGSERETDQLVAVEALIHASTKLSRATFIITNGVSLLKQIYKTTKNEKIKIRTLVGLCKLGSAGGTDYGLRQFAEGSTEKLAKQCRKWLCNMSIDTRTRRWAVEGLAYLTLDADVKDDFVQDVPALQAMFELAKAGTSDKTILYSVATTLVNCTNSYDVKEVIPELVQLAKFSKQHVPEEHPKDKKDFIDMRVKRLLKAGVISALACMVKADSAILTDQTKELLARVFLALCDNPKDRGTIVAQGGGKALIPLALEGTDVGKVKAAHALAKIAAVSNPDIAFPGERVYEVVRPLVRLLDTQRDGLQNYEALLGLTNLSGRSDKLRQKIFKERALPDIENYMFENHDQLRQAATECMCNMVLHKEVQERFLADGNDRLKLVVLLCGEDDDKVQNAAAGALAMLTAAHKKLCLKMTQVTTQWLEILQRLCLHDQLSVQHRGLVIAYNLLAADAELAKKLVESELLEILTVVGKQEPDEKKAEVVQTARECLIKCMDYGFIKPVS
Briefly: co-IP; UNC45B-FLAG pulled down with anti-FLAG beads from lysates of WT^UNC45B-OE-CMs, WT-CMs as negative control; eluates analysed by SDS-PAGE and western blot. For orientation: In western blotting, separated proteins are transferred to a membrane and probed.

As for HSP70, the binding entry is listed as “binds”.
